From publication PMC9174463
The exact form of at least one protein or probe is not confirmed. Where cells or extracts were used, other partners may take part.

Amino acid sequences for entries named in this document (tags omitted).
UniProt F1RNW6, entry or part of it: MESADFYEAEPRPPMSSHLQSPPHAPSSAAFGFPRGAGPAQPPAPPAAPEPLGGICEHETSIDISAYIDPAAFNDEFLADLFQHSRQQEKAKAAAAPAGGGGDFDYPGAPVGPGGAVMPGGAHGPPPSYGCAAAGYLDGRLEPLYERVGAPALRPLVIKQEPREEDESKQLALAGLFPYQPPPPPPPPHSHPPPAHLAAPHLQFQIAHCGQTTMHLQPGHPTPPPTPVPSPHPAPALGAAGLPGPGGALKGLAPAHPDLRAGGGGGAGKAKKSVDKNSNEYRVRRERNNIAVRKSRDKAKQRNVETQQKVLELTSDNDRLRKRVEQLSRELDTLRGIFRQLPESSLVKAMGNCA

Experiments:
[1] = target: C/EBPα (Sus scrofa (IPEC-J2 cells)) (UniProt F1RNW6); assay: competition with a labelled probe; conditions: excess unlabeled probe competes the shift; 20 mM Tris-HCl pH 7.6, 50 mM KCl, 1 mM DTT, 0.5 mM EDTA, 10% glycerol, 4 ug poly(dI-dC), 2 ug nuclear extract, 25 C 30 min; 6% native PAGE in 0.5x TBE; protein in an extract; label: none (text also says unlabeled 5'-biotinylated)
[2] = target: C/EBPα (Sus scrofa (IPEC-J2 cells)) (UniProt F1RNW6); assay: EMSA supershift; conditions: anti-C/EBPα antibody; 20 mM Tris-HCl pH 7.6, 50 mM KCl, 1 mM DTT, 0.5 mM EDTA, 10% glycerol, 4 ug poly(dI-dC), 2 ug nuclear extract, 25 C 30 min; 6% native PAGE in 0.5x TBE; protein in an extract; label: 5' biotin

Sequence	binding result [1]	binding result [2]
ACCGCGCTGGCGCAGCATCT (double strand) [TFF1 WT cold competitor]	binds	
ACCGCGCTGGCGCAGCATCT (double strand) [TFF1 WT probe]		binds
